Where “and” joins values, the source holds several entries; their conditions need not be identical. Equal values may be shown once. The source gives many values for each of these; only a part stands here.
Tested on: U2OS cells
Assay: Cell growth assay (IncuCyte confluence over 72 h)
Type: cell-based
Set-up: key: % of well area covered by cells (confluence)
Experimental: Cell growth assay: Cell confluence (phase) from RPE1 (hTERT RPE-1, ATCC CLR_4000) or U2OS (ATCC, HTB-96) cell lines were monitored over time with the IncuCyte S3 (Sartiorius, Germany) in 384-well plates in 50 ul DMEM media, supplemented with 10% Fetal Bovine Serum (FBS) 1% penicillin/Streptomycin and incubated 24 h before treatment. Experiment was performed as described in Cano-Franco et al.. […] Cell confluence is represented as % of area covered by cells. Each data point represents the average ratio or confluence obtained from three individual wells of the plate.

O=C1CC(c2ccc(Cl)c(Cl)c2)CC(=O)C1=CNCCN1CCNCC1 (centres unmarked) [Cov-3] was tested, and the U2OS cell growth (100 nM, time 12 h) was 34.424 and 37.4092 and 25.6598, the U2OS cell growth (100 nM, time 14 h) was 39.7254 and 48.0548 and 30.7648 and the U2OS cell growth (100 nM, time 16 h) was 27.4065 and 36.5227 and 21.1678. For the same compound, the U2OS cell growth (100 nM, time 18 h) was 46.5662 and 48.3463 and 36.8879, the U2OS cell growth (100 nM, time 20 h) was 38.2061 and 54.6173 and 27.8021 and the U2OS cell growth (100 nM, time 22 h) was 36.2137 and 40.2671 and 28.9743. For the same compound, the U2OS cell growth (100 nM, time 24 h) was 60.5849 and 66.4174 and 51.6124, the U2OS cell growth (100 nM, time 26 h) was 53.1389 and 64.6167 and 38.0637 and the U2OS cell growth (100 nM, time 28 h) was 56.5303 and 56.4263 and 47.0077. The U2OS cell growth (100 nM, time 34 h) was 55.867 and 74.0965 and 56.0187, the U2OS cell growth (100 nM, time 36 h) was 49.8922 and 53.7039 and 29.886 and the U2OS cell growth (100 nM, time 38 h) was 46.1984 and 66.635 and 38.3091. The U2OS cell growth (100 nM, time 40 h) was 79.3947 and 69.1001 and 57.2821, the U2OS cell growth (100 nM, time 42 h) was 69.8263 and 71.4482 and 59.5838 and the U2OS cell growth (100 nM, time 44 h) was 66.2351 and 65.7841 and 44.3898. For the same compound, the U2OS cell growth (100 nM, time 46 h) was 60.403 and 66.8668 and 47.0506, the U2OS cell growth (100 nM, time 48 h) was 57.8751 and 59.0533 and 41.8282 and the U2OS cell growth (100 nM, time 50 h) was 70.6825 and 84.7812 and 69.0292. The U2OS cell growth (100 nM, time 52 h) was 80.0495 and 64.0231 and 65.9363, the U2OS cell growth (100 nM, time 54 h) was 92.4508 and 93.0284 and 87.8023 and the U2OS cell growth (100 nM, time 56 h) was 81.5207 and 86.4012 and 74.4337. For the same compound, the U2OS cell growth (100 nM, time 60 h) was 96.6365 and 93.7914 and 91.565, the U2OS cell growth (100 nM, time 62 h) was 87.7923 and 95.364 and 78.9864 and the U2OS cell growth (100 nM, time 64 h) was 96.8152 and 92.9439 and 95.1795. The U2OS cell growth (100 nM, time 66 h) was 93.4316 and 93.3969 and 90.7727, the U2OS cell growth (100 nM, time 68 h) was 94.8482 and 94.8901 and 91.6376 and the U2OS cell growth (100 nM, time 70 h) was 97.6777 and 93.8456 and 96.2142. For the same compound, the U2OS cell growth (100 nM, time 72 h) was 93.1118 and 90.7932 and 83.3745, the U2OS cell growth (500 nM, time 10 h) was 30.7488 and 26.7288 and 32.9809 and the U2OS cell growth (500 nM, time 12 h) was 27.1987 and 25.3543 and 36.9137. The U2OS cell growth (500 nM, time 14 h) was 29.7432 and 23.6222 and 43.5814, the U2OS cell growth (500 nM, time 16 h) was 33.8319 and 26.4619 and 43.3524 and the U2OS cell growth (500 nM, time 18 h) was 33.2237 and 30.9975 and 37.0252. The U2OS cell growth (500 nM, time 20 h) was 43.6279 and 27.7465 and 47.6343, the U2OS cell growth (500 nM, time 22 h) was 31.2979 and 25.5071 and 36.6812 and the U2OS cell growth (500 nM, time 24 h) was 49.5858 and 41.3421 and 62.8344. The U2OS cell growth (500 nM, time 26 h) was 38.555 and 37.7949 and 52.3935, the U2OS cell growth (500 nM, time 28 h) was 36.6992 and 31.5583 and 59.1197 and the U2OS cell growth (500 nM, time 30 h) was 44.2578 and 42.7079 and 56.1773. For the same compound, the U2OS cell growth (500 nM, time 32 h) was 58.7176 and 33.4329 and 60.191, the U2OS cell growth (500 nM, time 34 h) was 44.0154 and 40.4776 and 76.2023 and the U2OS cell growth (500 nM, time 36 h) was 38.8402 and 45.1554 and 48.1058. The U2OS cell growth (500 nM, time 38 h) was 50.843 and 44.4932 and 68.1828, the U2OS cell growth (500 nM, time 40 h) was 41.6587 and 38.6094 and 73.0109 and the U2OS cell growth (500 nM, time 42 h) was 59.8084 and 50.8314 and 73.0945. For the same compound, the U2OS cell growth (500 nM, time 44 h) was 53.3097 and 49.8387 and 66.8176, the U2OS cell growth (500 nM, time 46 h) was 60.6524 and 59.007 and 78.0819 and the U2OS cell growth (500 nM, time 48 h) was 66.2399 and 45.3206 and 65.7511. The U2OS cell growth (500 nM, time 50 h) was 70.3843 and 58.9939 and 75.8705, the U2OS cell growth (500 nM, time 52 h) was 68.9429 and 80.966 and 82.0533 and the U2OS cell growth (500 nM, time 54 h) was 84.6961 and 79.5127 and 93.2111. For the same compound, the U2OS cell growth (500 nM, time 56 h) was 77.5325 and 73.483 and 88.3047, the U2OS cell growth (500 nM, time 58 h) was 78.3028 and 76.3386 and 90.1819 and the U2OS cell growth (500 nM, time 60 h) was 79.2505 and 69.7603 and 86.8917. For the same compound, the U2OS cell growth (500 nM, time 62 h) was 91.0789 and 81.3931 and 89.7806, the U2OS cell growth (500 nM, time 64 h) was 85.8262 and 88.6536 and 92.2168 and the U2OS cell growth (500 nM, time 66 h) was 88.4152 and 76.5234 and 94.5393. The U2OS cell growth (500 nM, time 68 h) was 84.8472 and 75.1894 and 95.1836, the U2OS cell growth (500 nM, time 70 h) was 85.5972 and 86.9023 and 90.3612 and the U2OS cell growth (500 nM, time 72 h) was 74.2556 and 89.7048 and 79.959. For the same compound, the U2OS cell growth (1 uM, time 10 h) was 39.1596 and 43.7988, the U2OS cell growth (1 uM, time 12 h) was 24.6816 and 36.4773 and 38.8614 and the U2OS cell growth (1 uM, time 14 h) was 25.3949 and 38.1109 and 32.4977. For the same compound, the U2OS cell growth (1 uM, time 16 h) was 25.9805 and 38.8453 and 47.3734, the U2OS cell growth (1 uM, time 18 h) was 26.9731 and 48.1799 and 49.078 and the U2OS cell growth (1 uM, time 20 h) was 26.1426 and 44.3671 and 44.5709. For the same compound, the U2OS cell growth (1 uM, time 22 h) was 31.4336 and 39.0696 and 38.1423, the U2OS cell growth (1 uM, time 24 h) was 41.8181 and 69.4259 and 63.8587 and the U2OS cell growth (1 uM, time 26 h) was 41.9862 and 50.7595 and 47.8111. For the same compound, the U2OS cell growth (1 uM, time 28 h) was 34.3638 and 49.9695 and 46.2544, the U2OS cell growth (1 uM, time 30 h) was 34.2697 and 54.7126 and 62.3183 and the U2OS cell growth (1 uM, time 32 h) was 39.6923 and 59.7417 and 52.8725. The U2OS cell growth (1 uM, time 34 h) was 41.509 and 56.6283 and 54.8741, the U2OS cell growth (1 uM, time 36 h) was 40.9164 and 47.567 and 48.2567 and the U2OS cell growth (1 uM, time 38 h) was 55.0369 and 82.8139 and 77.0405. For the same compound, the U2OS cell growth (1 uM, time 40 h) was 43.1598 and 60.6915 and 58.0138, the U2OS cell growth (1 uM, time 42 h) was 50.9671 and 68.599 and 66.5795 and the U2OS cell growth (1 uM, time 44 h) was 54.1845 and 75.4274 and 80.9038. The U2OS cell growth (1 uM, time 46 h) was 60.0255 and 73.3491 and 68.7558, the U2OS cell growth (1 uM, time 48 h) was 48.054 and 78.272 and 74.3277 and the U2OS cell growth (1 uM, time 50 h) was 63.2703 and 77.8356 and 81.954. For the same compound, the U2OS cell growth (1 uM, time 52 h) was 72.6909 and 87.6865 and 81.0244, the U2OS cell growth (1 uM, time 54 h) was 76.3148 and 91.161 and 90.022 and the U2OS cell growth (1 uM, time 56 h) was 72.735 and 86.0153 and 85.6529. For the same compound, the U2OS cell growth (1 uM, time 58 h) was 79.5683 and 93.4176 and 94.2571, the U2OS cell growth (1 uM, time 60 h) was 75.1278 and 88.9941 and 86.7455 and the U2OS cell growth (1 uM, time 62 h) was 79.1998 and 91.8091 and 89.3326. The U2OS cell growth (1 uM, time 64 h) was 86.2139 and 94.6409 and 96.522, the U2OS cell growth (1 uM, time 66 h) was 87.4215 and 98.7146 and 91.0504 and the U2OS cell growth (1 uM, time 68 h) was 86.1718 and 95.424 and 91.171. For the same compound, the U2OS cell growth (1 uM, time 70 h) was 75.2965 and 94.4259 and 94.0036 and the U2OS cell growth (1 uM, time 72 h) was 88.7393 and 99.2054 and 98.6383.
